# Measurements: patent publication US20110281852A1 (priority 2010, published 2011)
# At least one compound was matched to its structure with a doubt left.
# What was measured:
# 3T3-L1 cells = test: Oil-Red-O staining and quantification, berberine with amentoflavone in 3T3-L1 (Example 6); type: cell-based, mouse; details: 25 μM amentoflavone, without clozapine
# Description: Oil-Red-O staining and quantification: Oil-Red-O Staining and its quantification were performed as previously reported. Briefly, medium was removed and cells were washed with PBS twice, fixed with 3.7% formalin at room temperature for 30 min, then rinsed with pure water, added 60% isopropanol and incubated for 5 minutes, then moved out isopropanol and stained cells with diluted Oil-Red-O solution (Oil-Red-O store solution (3 mg/ml in pure isopropanol): water=3:2) at room temperature for 10 min. Then the diluted Oil-Red-O solution was removed and cells were washed 3 times with pure water. After staining, the cells were washed twice with 70% ethanol to remove excess stain. Stained oil droplets in the cells were dissolved in isopropanol containing 4% Nonidet-P40 (Fisher Scientific, Pittsburgh, Pa., USA) shaking in 37° C. at speed 100 rpm for 1 hour, and OD values were measured at an absorbance of 490 nm and then normalized with control group.
# [1] = tested on: fatty acid synthase (FAS); test: Real-time RT-PCR, FAS mRNA in 3T3-L1; type: cell-based, mouse; details: clozapine treatment, 8 days
# From the text: Realtime RT-PCR: Real-time reverse transcriptase polymerase chain reaction (RT-PCR) analysis was used to measure mRNA expression of genes SREBP-1, PPARγ, C/EBPα, low density lipoprotein receptor (LDLR), Adiponectin, and fatty acid synthase (FAS) under the control of β-actin. Briefly, total RNA was isolated from 3T3-L1 cells following treatment for 8 days with Trizol reagent (Invitrogen, Carlsbad, Calif., USA) according to the manufacturer's instruction. RNA was quantified using absorption of light at 260 nm, and sample purity was checked by OD 260 nm/280 nm. 0.8 μg of total RNA from each sample was used for reverse transcription reaction using the TaqMan Reverse Transcription Reagents (Applied Biosystems, Foster City, Calif., USA) according to the manufacturers' instructions. PCR was done using the SYBR green Master Mix (Applied Biosystems, Foster City, Calif., USA) according to the manufacturers' instructions. The temperature cycling conditions of amplification were as follows: an initial step of denaturation at 95° C. for 10 min, 40 cycles of denaturation at 95° C. for 30 s, annealing at 55° C. for 30 s, and elongation at 72° C. for 30 s. Realtime RT-PCR was performed using Mx3000P Realtime Thermocyclers (Statagene, La Jolla, Calif., USA). The relative mRNA levels of these genes were calculated by 2-delta delta CT method and normalized with control groups.
SMILES,effect of amentoflavone on inhibitory effects of berberine (3T3-L1 cells),FAS mRNA expression change vs control group [1]
"O=c1cc(-c2ccc(O)c(-c3c(O)cc(O)c4c(=O)cc(-c5ccc(O)cc5)oc34)c2)oc2cc(O)cc(O)c12 [amentoflavone, reference compound]",enhanced the inhibitory effects of berberine slightly,–
"CN1CCN(C2=Nc3cc(Cl)ccc3Nc3ccccc32)CC1 [clozapine, reference compound]",–,No significant mRNA expression change
